The supplement of paper PMC10849652
The list shows a part of the results.

By UniProt entry, the sequences of proteins in these tests, tags left out. Where a name states a change or a piece, a line headed by the entry shows the natural chain unless it says otherwise.
UniProt P11172: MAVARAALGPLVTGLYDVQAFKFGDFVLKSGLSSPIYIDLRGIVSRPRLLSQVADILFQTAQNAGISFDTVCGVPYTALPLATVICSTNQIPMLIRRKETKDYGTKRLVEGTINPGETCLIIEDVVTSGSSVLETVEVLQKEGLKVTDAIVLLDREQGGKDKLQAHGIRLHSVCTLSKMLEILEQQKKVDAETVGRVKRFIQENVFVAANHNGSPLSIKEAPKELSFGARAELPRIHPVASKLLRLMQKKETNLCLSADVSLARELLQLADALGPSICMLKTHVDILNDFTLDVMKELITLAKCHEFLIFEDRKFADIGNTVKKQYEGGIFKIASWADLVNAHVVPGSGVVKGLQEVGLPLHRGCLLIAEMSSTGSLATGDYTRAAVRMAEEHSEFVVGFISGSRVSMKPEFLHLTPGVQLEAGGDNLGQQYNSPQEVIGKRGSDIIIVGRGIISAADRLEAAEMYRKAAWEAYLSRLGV
UniProt P63027, whole entry, looked up: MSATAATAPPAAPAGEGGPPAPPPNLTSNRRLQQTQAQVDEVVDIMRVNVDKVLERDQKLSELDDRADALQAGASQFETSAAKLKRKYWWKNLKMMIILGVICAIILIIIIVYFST
UniProt P55072, whole entry, looked up: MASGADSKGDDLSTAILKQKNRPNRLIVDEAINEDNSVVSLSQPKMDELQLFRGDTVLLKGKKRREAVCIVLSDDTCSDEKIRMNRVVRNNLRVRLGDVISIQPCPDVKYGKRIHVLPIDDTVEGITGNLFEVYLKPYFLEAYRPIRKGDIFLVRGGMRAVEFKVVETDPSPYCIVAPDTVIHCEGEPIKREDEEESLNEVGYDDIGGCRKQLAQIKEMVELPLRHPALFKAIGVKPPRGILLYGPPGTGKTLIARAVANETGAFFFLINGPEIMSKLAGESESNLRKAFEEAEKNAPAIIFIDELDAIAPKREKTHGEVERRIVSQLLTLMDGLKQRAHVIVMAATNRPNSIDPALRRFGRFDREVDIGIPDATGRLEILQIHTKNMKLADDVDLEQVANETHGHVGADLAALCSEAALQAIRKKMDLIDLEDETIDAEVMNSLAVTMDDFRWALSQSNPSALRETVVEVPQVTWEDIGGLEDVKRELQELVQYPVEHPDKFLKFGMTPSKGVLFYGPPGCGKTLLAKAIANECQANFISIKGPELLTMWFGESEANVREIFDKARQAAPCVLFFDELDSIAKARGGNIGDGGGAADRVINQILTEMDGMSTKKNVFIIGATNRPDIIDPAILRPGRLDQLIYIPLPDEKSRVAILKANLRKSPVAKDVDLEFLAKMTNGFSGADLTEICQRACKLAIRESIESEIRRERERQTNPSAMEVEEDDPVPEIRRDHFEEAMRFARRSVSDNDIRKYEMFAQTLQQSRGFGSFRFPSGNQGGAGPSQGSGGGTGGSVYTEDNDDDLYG
UniProt Q15386: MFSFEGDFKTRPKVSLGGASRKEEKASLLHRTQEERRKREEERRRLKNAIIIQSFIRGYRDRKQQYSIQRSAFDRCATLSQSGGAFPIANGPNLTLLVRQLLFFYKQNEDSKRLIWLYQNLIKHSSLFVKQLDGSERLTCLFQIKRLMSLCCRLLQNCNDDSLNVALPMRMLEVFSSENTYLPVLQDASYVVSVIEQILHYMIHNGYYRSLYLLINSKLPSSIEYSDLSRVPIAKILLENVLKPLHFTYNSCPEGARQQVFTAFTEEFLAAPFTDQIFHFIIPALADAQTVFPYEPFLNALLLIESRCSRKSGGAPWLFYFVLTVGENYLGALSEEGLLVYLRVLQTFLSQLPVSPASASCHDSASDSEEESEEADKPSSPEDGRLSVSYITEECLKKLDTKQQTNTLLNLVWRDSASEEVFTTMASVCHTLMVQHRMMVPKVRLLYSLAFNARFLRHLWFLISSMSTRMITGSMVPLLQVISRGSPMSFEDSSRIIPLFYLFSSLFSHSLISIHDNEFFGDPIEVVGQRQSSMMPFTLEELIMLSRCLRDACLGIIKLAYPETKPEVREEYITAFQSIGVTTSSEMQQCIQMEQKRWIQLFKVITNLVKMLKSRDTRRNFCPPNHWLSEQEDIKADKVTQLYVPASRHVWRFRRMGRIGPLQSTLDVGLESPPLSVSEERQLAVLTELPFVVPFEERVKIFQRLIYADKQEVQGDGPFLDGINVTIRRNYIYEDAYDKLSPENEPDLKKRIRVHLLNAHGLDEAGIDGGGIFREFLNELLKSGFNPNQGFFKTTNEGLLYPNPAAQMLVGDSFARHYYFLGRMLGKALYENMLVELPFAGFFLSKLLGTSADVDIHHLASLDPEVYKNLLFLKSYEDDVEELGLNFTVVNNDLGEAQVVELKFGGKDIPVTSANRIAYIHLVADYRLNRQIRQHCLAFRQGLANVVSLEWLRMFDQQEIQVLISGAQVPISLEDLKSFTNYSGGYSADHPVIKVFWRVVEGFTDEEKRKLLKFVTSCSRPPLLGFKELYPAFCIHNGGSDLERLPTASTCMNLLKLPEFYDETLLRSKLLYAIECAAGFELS
UniProt Q9NWZ5: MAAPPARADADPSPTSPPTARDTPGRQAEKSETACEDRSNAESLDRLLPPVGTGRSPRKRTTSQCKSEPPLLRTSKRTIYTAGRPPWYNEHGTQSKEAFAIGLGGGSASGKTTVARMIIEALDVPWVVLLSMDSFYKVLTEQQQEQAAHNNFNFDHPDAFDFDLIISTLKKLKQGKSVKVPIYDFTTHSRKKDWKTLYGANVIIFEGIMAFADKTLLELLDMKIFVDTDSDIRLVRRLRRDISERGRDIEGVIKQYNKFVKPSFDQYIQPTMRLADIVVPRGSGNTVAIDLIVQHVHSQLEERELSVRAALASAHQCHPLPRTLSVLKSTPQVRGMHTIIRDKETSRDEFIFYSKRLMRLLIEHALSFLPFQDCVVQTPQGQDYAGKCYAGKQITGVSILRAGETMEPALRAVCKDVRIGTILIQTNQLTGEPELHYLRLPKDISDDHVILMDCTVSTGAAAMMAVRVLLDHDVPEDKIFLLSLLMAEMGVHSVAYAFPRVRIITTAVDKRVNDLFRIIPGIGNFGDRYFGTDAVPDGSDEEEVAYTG
UniProt Q70CQ3: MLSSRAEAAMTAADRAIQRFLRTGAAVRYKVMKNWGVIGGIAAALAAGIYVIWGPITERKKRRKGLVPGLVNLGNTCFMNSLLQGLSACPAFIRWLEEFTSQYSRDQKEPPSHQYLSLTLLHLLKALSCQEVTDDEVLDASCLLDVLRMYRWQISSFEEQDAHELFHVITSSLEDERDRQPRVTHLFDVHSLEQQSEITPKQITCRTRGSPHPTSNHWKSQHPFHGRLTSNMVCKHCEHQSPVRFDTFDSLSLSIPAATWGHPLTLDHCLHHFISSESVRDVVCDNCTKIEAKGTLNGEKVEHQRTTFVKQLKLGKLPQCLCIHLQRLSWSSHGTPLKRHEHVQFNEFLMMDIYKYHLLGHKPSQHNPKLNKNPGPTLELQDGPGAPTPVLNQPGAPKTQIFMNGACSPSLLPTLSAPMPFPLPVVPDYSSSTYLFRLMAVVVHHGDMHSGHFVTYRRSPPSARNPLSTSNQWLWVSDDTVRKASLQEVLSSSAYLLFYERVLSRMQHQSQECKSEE
UniProt Q96BW1: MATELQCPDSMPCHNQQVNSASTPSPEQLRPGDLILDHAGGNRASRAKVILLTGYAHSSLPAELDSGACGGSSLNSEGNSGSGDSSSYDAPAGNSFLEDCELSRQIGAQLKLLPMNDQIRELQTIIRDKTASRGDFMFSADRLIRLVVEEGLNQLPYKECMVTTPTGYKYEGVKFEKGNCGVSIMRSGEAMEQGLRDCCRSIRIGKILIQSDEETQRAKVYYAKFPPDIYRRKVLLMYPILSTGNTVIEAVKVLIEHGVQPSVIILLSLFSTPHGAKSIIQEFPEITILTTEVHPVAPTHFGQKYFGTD
UniProt Q9BZI7: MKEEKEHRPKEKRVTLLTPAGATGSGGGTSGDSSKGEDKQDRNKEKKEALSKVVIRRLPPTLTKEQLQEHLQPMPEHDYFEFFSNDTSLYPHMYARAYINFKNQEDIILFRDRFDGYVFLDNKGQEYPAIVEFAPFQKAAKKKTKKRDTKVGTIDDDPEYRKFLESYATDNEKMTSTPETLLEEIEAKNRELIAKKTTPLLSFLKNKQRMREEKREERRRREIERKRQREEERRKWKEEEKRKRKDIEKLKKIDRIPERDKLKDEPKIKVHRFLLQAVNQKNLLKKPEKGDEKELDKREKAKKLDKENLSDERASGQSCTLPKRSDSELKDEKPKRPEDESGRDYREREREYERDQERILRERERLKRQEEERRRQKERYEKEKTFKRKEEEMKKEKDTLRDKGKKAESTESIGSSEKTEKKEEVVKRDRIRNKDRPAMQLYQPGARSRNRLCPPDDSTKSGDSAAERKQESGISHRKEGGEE
UniProt Q9UHD9, whole entry, looked up: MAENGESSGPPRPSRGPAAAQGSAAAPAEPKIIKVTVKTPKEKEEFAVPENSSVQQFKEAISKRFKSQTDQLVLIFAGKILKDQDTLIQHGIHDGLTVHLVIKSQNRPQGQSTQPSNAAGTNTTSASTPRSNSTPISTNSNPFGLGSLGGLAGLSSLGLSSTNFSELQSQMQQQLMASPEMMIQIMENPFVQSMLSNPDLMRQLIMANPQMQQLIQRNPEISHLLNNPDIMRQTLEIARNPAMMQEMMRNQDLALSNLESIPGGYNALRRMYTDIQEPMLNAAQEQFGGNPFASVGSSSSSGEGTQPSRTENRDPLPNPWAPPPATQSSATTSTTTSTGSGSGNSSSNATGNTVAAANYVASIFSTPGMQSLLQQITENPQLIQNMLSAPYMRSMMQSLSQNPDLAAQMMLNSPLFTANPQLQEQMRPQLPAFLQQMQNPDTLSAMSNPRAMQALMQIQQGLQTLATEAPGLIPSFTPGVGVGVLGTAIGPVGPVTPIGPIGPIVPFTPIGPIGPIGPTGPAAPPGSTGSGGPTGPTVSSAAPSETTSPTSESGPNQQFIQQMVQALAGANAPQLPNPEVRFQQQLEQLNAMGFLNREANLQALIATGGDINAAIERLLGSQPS
UniProt P22695: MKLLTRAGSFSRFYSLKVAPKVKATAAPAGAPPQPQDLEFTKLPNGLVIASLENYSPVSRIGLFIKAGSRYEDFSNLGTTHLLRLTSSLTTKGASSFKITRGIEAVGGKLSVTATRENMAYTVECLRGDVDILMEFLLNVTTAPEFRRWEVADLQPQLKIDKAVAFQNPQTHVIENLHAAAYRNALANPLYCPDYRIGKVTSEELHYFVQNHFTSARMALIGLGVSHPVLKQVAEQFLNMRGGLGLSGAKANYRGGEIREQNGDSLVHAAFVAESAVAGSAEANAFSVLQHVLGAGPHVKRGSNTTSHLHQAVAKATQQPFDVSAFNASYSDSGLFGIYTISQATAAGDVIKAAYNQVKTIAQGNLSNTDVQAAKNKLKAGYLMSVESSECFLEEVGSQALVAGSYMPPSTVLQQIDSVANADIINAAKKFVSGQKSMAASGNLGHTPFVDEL
UniProt Q92900: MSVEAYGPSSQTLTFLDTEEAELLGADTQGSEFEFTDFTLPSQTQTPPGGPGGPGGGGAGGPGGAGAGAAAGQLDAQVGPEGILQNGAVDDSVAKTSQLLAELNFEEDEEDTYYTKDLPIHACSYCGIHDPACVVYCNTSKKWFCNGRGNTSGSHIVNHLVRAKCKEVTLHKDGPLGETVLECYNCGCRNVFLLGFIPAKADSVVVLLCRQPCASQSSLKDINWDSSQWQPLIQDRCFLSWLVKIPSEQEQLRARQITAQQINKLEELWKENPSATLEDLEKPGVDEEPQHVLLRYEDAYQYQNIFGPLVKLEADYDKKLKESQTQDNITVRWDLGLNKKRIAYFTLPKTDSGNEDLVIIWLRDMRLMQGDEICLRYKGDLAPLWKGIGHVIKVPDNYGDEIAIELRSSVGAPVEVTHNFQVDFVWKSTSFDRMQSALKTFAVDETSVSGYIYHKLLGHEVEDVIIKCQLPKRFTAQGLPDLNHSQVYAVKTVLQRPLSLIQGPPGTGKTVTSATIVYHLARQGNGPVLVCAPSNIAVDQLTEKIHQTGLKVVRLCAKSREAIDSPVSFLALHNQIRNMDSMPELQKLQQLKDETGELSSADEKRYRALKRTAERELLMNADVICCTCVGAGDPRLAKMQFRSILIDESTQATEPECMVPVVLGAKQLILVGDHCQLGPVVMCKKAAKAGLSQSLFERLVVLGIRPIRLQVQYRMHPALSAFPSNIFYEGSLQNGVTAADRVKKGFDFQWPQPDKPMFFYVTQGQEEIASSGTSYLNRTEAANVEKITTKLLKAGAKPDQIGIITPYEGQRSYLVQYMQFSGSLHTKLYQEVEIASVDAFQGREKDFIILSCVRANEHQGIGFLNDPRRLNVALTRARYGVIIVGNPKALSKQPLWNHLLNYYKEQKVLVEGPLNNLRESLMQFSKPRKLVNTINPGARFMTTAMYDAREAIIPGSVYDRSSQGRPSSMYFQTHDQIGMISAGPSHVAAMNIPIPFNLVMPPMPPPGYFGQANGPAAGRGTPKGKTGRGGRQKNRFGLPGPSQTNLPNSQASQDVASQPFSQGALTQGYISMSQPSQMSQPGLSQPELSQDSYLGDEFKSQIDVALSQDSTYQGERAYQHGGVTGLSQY

compound: COC(=O)[C@H](CCSC)NC(=O)C1=C(C=C(C=C1)NC[C@H](CS)N)C2=CC=CC=C2; assay: log2 fold change, soluble protein after heating vs DMSO (PISA); higher = thermal stabilisation; K562 cells, 10 uM, 30 min; active = over 0.2 and 3.5 SD of the protein, either way, in both replicates (recomputed)
Procedure, shortened: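 K562 cells at 2×10^6 cells/mL were exposed to 10 μM compound for 30 min, then aliquots were heated for 3 min across 48°C-58°C, pooled, and extracted in PBS containing 0.5% NP-40 at 4°C. The supernatant after 21,000xg for 90 min was taken as soluble protein and measured by TMTpro 16plex LC-MS/MS with channel sums equalised. Thermal stability is reported relative to control samples, with values from duplicates. Fold changes are given on a log2 scale.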

log2 fold change, inactive:
UMPS (UniProt P11172) -0.013
USP9X (UniProt Q93008) -0.009
UBXN7 (UniProt O94888) 0.002
USP6NL isoform 2 (UniProt Q92738) -0.063
UBQLN1 (UniProt Q9UMX0) 0.045
USP22 (UniProt Q9UPT9) -0.131
UGT8 (UniProt Q16880) -0.094
VAMP2 (UniProt P63027) -0.161
UXS1 isoform 2 (UniProt Q8NBZ7) -0.014
VCP (UniProt P55072) 0.033
USP19 isoform 6 (UniProt O94966) -0.025
UTP15 (UniProt Q8TED0) -0.03
UBL4A (UniProt P11441) -0.018
UBE3C (UniProt Q15386) 0.02
VAMP4 (UniProt O75379) 0.056
UQCC1 (UniProt Q9NVA1) 0.019
UCKL1 (UniProt Q9NWZ5) 0.064
UQCRB (UniProt P14927) -0.012
VARS (UniProt P26640) -0.02
UBL5 (UniProt Q9BZL1) -0.069
USP20 (UniProt Q9Y2K6) 0.054
USP30 (UniProt Q70CQ3) 0.392
UPRT (UniProt Q96BW1) -0.065
UPF3B (UniProt Q9BZI7) 0.007
VAMP7 (UniProt P51809) -0.011
UVRAG (UniProt Q9P2Y5) -0.073
UFSP2 (UniProt Q9NUQ7) -0.08
UQCRQ (UniProt O14949) 0.059
USP15 (UniProt Q9Y4E8) -0.031
UBQLN2 (UniProt Q9UHD9) -0.033
UGDH (UniProt O60701) -0.038
UQCRC2 (UniProt P22695) 0.008
USP7 (UniProt Q93009) -0.06
UBQLN3 (UniProt Q9H347) 0.021
UCHL3 (UniProt P15374) -0.005
VBP1 (UniProt P61758) 0.032
UPF1 (UniProt Q92900) -0.036
UBLCP1 (UniProt Q8WVY7) -0.034
UXT isoform 2 (UniProt Q9UBK9) -0.078

A section taken from the entries so far, for reference:
log2 fold change, inactive:
VCP (UniProt P55072) 0.033
USP19 isoform 6 (UniProt O94966) -0.025
UTP15 (UniProt Q8TED0) -0.03
UBL4A (UniProt P11441) -0.018
UBE3C (UniProt Q15386) 0.02
VAMP4 (UniProt O75379) 0.056
UQCC1 (UniProt Q9NVA1) 0.019
UCKL1 (UniProt Q9NWZ5) 0.064
UQCRB (UniProt P14927) -0.012
VARS (UniProt P26640) -0.02
